The campaign covered roughly 330,000 compounds. About 7,700 (2.3%) were called active. Inconclusive results, whose numbers are uncertain, are shown with a selection of clear calls. Calls come from the whole dose curve; as a rule, active = well fitted inhibition curve with a large enough effect; inconclusive = small, poorly fitted or top-dose-only effect, or effect the other way; inactive = flat fitted curve, though single readings scatter. Potencies beside an inconclusive call are fits to weak or partial responses and may not hold up.
Test: qHTS screen for small molecules that inhibit ELG1-dependent DNA repair in human embryonic kidney (HEK293T) cells expressing luciferase-tagged ELG1; note: nearly all actives have a fitted effect of over 55% in size
Details: HEK293T ELG1-luciferase reporter, luminescence, 16 h, DNA damage induced by 5-fluorouridine; series mostly up to 46.1 µM
In short: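 Cells (2,000 per well) received 5-fluorouridine plus test compound or DMSO and were incubated 16 hr at 37 °C, 5% CO2. Luciferase activity was read by luminescence 30 min after ONE-Glo addition; signal suppression marked inhibition of damage-induced ELG1 function.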
Potency is the fitted concentration of half-maximal effect.

Row | Compound | Potency
1 | COc1ccc(-c2nnn(CC(=O)c3ccc4c(c3)OCCO4)n2)cc1OC | inconclusive: 11.6 µM [inhibitor, partial curve, poor fit]
2 | Cc1ccc(OCCNCc2ccccc2)c(C)c1 | inactive
3 | O=C(N/N=C/c1cn(-c2ccccc2)nc1-c1cc2ccccc2o1)c1ccncc1 | inconclusive: 2.59 µM [activator, partial curve]
4 | Nc1c(-c2ccccc2)c(CN2CCOCC2)nn1-c1cccc([N+](=O)[O-])c1 | inconclusive: 18.3 µM [inhibitor, single point]
5 | COc1c(C)cccc1C(=O)NC(=S)Nc1cccc2nsnc12 | inconclusive: 29.1 µM [activator, single point]
6 | CC(=O)NC(c1ccc(C(C)C)cc1)c1ccc2cccnc2c1O (configuration not stated) | inconclusive: 4.11 µM [inhibitor, single point]
7 | COCCn1c(SCc2ccc(OC)c(F)c2)nc2ccccc2c1=O | inconclusive: 25.9 µM [inhibitor, single point]
8 | Cc1ccc(S(=O)(=O)N2CCOCC2)cc1NC(=O)CNCc1ccccc1Cl | inconclusive: 20.6 µM [inhibitor, single point]
9 | COc1ccc(C2CC(=O)NC3=C2C(=O)CCC3)cc1Cl (configuration not stated) | inconclusive: 11.2 µM [activator, single point]
10 | COc1ccc(N2CCN(C(=O)CNC(=O)c3cn(-c4ccccc4OC)c(=O)c4ccccc34)CC2)cc1 | inactive
11 | CC(C)n1c(SCC(=O)Nc2nc3c(s2)CCCC3)nc2c1c(=O)n(C)c(=O)n2C | active: 18.4 µM
12 | Cc1oncc1-c1csc(-c2ccccc2Cl)n1 | inconclusive: 23.1 µM [activator, single point]
13 | N/C(=N\OC(=O)/C=C/c1ccccc1)c1ccccc1 | inconclusive: 8.2 µM [activator, partial curve]
14 | O=C(NCc1cccc(C(F)(F)F)c1)N1CCN(C(=O)c2ccccc2)CC1 | inconclusive: 25.9 µM [activator, single point]
15 | COc1ccccc1-n1c(SCC(=O)NC2CC2)nc2ccccc2c1=O | inconclusive: 23.1 µM [activator, single point]
16 | Cc1ccc(S(=O)(=O)N2CCCC(C(=O)Nc3ccc(NC(=O)c4ccccn4)cc3)C2)cc1 (configuration not stated) | inconclusive: 5.17 µM [inhibitor, single point]
17 | CC1CC(C)CN(C(=O)c2cccc(NC(=O)CC3SC(N4CCCCC4)=NC3=O)c2)C1 (configuration not stated) | inconclusive: 13 µM [inhibitor, partial curve, poor fit]
18 | Cc1cc(/C=N\NC(=O)COc2cccc3cccnc23)c(C)n1-c1ccc(Br)cc1 | inactive
19 | COC(=O)Cc1ccc(N(Cc2ccccc2F)S(=O)(=O)c2ccc(Cl)cc2)cc1 | inactive
20 | COc1cc(/C=C/C(=O)Nc2nnc(C(C)(C)C)s2)cc(OC)c1OC | inconclusive: 13 µM [inhibitor, partial curve, poor fit]
21 | O=C(Cc1ccccc1)c1nc2ccccc2s1 | inconclusive: 13 µM [activator, partial curve]

Shown comma-delimited: part of the list above.
Row,Compound,Potency
2,Cc1ccc(OCCNCc2ccccc2)c(C)c1,inactive
17,CC1CC(C)CN(C(=O)c2cccc(NC(=O)CC3SC(N4CCCCC4)=NC3=O)c2)C1 (configuration not stated),"inconclusive: 13 µM [inhibitor, partial curve, poor fit]"

Later entries

Row | Compound | Potency
22 | Cc1ccc(NC(=O)c2sc3nc(C)cc(C)c3c2N)cc1 | inconclusive: 1.83 µM [activator, partial curve]
23 | CCOC(=O)c1cc(CC)sc1NC(=O)CN1C(=O)C(=O)N(CC(C)C)C1=O | inactive
24 | COc1ccc(S(=O)(=O)N2CCOC23CCN(C(=O)c2c(F)cccc2Cl)CC3)cc1 | inconclusive: 23.1 µM [inhibitor, partial curve]
25 | CCOc1ccc(CN2CCN(Cc3cnc(N4CCOCC4)s3)CC2CCO)cc1 (configuration not stated) | inconclusive: 16.4 µM [inhibitor, single point]
26 | O=C(CSc1nc2ccccc2c(=O)n1CC1CCCO1)Nc1ccccc1 (configuration not stated) | inconclusive: 25.9 µM [inhibitor, partial curve]
27 | O=C(NCCN1CCCC1=O)C1CCC(=O)N(CCc2cccc(F)c2)C1 (configuration not stated) | inactive
28 | O=C(Nc1ccc2c(c1)CCC2)c1cc(S(=O)(=O)Nc2ccc(F)cc2)c(Cl)cc1Cl | inconclusive: 25.9 µM [inhibitor, partial curve]
29 | COc1ccc(CC(=O)NCC2CCCN(Cc3ccccc3Cl)C2)cc1 (configuration not stated) | inactive
30 | CC(=O)N1CC(C)Sc2ccc(S(=O)(=O)NC(C)c3ccccc3)cc21 (configuration not stated) | inconclusive: 16.4 µM [inhibitor, single point]
31 | c1ccc(-c2noc(CSc3nnnn3C3CCCCC3)n2)cc1 | inconclusive: 32.6 µM [activator, single point]
32 | O=C1NC(=Nc2ccc(O)cc2)S/C1=C\C=C\c1ccco1 | inconclusive: 6.51 µM [inhibitor, single point]
33 | C[C@H](CO)N1C[C@H](C)[C@@H](CN(C)S(=O)(=O)c2ccc(F)cc2)Oc2c(NC(=O)NC3CCCCC3)cccc2C1=O | inconclusive: 32.6 µM [inhibitor, partial curve, poor fit]
34 | CN(C)C(=O)CCc1ccc2c3c([nH]c2c1)[C@]1(CCc2ccccc2)[C@@H](C(=O)N2CCCCC2)C[C@H](CC(=O)NCCC2=CCCCC2)C(=O)N1CC3 | inactive
35 | COC(=O)C1CCN(C(=O)Nc2ccccc2)CC1 | inactive
36 | Cc1ccc(C)c(N2N=C(C(=O)OCc3nnc(-c4cccs4)o3)CCC2=O)c1 | inconclusive: 29.1 µM [activator, single point]
37 | O=c1[nH]c2ccccc2nc1-c1ccccc1 | inconclusive: 14.6 µM [activator, partial curve]
38 | CCOC(=O)c1nnc2cc(-c3ccc(Br)cc3)nn2c1C | inconclusive: 11.6 µM [activator, partial curve, poor fit]
39 | CCOC(=O)CC(=O)CSc1nc2c(sc(=S)n2-c2ccc(OCC)cc2)c(=O)[nH]1 | inactive
40 | CCOc1cc(NC(=S)Nc2cccc(C)c2)c(OCC)cc1NC(=O)CC(C)C | inconclusive: 29.1 µM [inhibitor, single point]
41 | Fc1ccc(Nc2nc(-c3ccncc3)nc3ccccc23)cc1 | active: 2.31 µM
42 | COc1ccc(C(=O)NCC2CCCO2)cc1 (configuration not stated) | inconclusive: 13 µM [activator, partial curve, poor fit]
